We go through 2 molecules from publication PMC3496707.

Amino acid sequences for entries named in this document (tags omitted). Residues count along the entry.
UniProt P14873, residues 2203-2464: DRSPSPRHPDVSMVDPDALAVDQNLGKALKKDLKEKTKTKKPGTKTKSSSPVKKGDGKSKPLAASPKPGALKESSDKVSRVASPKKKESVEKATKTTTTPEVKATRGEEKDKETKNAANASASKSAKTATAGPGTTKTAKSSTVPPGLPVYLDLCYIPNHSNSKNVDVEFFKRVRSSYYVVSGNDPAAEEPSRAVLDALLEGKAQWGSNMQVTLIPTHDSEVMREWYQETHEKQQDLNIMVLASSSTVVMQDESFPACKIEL
UniProt P15205, residues 2200-2461: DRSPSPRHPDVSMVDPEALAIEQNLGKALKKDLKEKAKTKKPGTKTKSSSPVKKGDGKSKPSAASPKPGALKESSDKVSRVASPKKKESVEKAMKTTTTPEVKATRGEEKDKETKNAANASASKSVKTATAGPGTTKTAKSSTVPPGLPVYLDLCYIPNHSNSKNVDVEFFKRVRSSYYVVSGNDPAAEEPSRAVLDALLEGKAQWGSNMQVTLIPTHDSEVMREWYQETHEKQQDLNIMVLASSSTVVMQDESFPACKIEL
UniProt P02769, residues 25-607: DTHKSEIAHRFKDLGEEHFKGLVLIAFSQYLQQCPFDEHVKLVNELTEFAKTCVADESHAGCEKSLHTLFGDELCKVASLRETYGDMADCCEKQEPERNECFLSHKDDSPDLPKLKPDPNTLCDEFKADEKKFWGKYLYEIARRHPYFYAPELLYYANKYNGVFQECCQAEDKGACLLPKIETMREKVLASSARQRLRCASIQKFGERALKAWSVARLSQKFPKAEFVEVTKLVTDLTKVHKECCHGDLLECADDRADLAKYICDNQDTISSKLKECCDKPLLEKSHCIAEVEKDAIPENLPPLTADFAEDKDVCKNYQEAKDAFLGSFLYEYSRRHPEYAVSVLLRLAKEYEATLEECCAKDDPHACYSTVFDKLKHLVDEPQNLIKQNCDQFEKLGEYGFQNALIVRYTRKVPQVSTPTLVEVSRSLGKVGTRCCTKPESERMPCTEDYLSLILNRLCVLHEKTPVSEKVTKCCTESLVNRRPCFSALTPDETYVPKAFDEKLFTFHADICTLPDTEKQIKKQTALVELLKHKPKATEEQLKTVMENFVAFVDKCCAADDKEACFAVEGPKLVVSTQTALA

Results are given in words; binding and its absence hold for the method and conditions named. For part of these data: Binding seen in cells or lysates may run through a third protein. Some binding calls cover weakened binding; strength is not graded here. For part of these data: Sequences can lack the tags named with a protein.

Test [1] has as its target LC1 (light chain of MAP1B), endogenous in wild-type mouse brain (mouse (endogenous in brain)) (UniProt P14873). Put plainly: co-IP; wild-type mouse brain extracts, precipitated with anti-LC1; not shown.
In test [2] the target is myc-tagged LC1 expressed in the brain of transgenic mice (UniProt P15205). Briefly: co-IP; brain extracts of 3-week-old transgenic mice expressing myc-tagged LC1, TEN buffer; precipitated with anti-myc, blotted with anti-syn1351.
The next test deals with BSA type H1 (bovine) (UniProt P02769). Briefly: microtiter plate overlay assay with Eu3+-labeled protein (time-resolved fluorescence); plates coated with 100 nM LC1 or BSA, blocked with 4% BSA, overlaid with increasing amounts of Eu3+-labeled α1-syntrophin; both purified.

B1: α1-syntrophin, endogenous in mouse brain (protein, UniProt Q61234 1-503)
chain: MASGRRAPRTGLLELRCGAGSGAGGERWQRVLLSLAEDALTVSPADGEPGPEPEPAQLNGAAEPGAAPPQLPEALLLQRRRVTVRKADAGGLGISIKGGRENKMPILISKIFKGLAADQTEALFVGDAILSVNGEDLSSATHDEAVQALKKTGKEVVLEVKYMKEVSPYFKNSAGGTSVGWDSPPASPLQRQPSSPGPQPRNLSEAKHVSLKMAYVSRRCTPTDPEPRYLEICAADGQDAVFLRAKDEASARSWAGAIQAQIGTFIPWVKDELQALLTATGTAGSQDIKQIGWLTEQLPSGGTAPTLALLTEKELLFYCSLPQSREALSRPTRTAPLIATSSAHRLVHSGPSKGSVPYDAELSFALRTGTRHGVDTHLFSVESPQELAAWTRQLVDGCHRAAEGIQEVSTACTWNGRPCSLSVHIDKGFTLWAAEPGAARAMLLRQPFEKLQMSSDDGTSLLFLDFGGAEGEIQLDLHSCPKTMVFIIHSFLSAKVTRLGLLA
For the molecule B1, the binding result in test [1] and in test [2] was “binds” each time.

B2: NH2-terminally 6xHis-tagged full length mouse α1-syntrophin (protein, UniProt Q61234 1-503)
chain: B1 chain
modifications: Eu3+-labeled (in the microtiter plate assay only)
B2: the binding entry with BSA type H1 (bovine) was “no binding”.
